Data as given in US6133322A, “Quinone derivatives for treating or preventing diseases associated with iron overload” (Institut National de la Sante et de la Recherche Medicale …, priority 1998, dated 2000).
The name of at least one read-out is uncertain.

Key:
complex II = experiment: Complex II activity (succinate quinone DCPIP reductase) in freeze-thaw human heart homogenate; type: biochemical
Procedure: (§1) Human heart homogenates were used as an in vitro model to mimic the action of iron on mitochondrial ISPs and to test the potentially protective effect of various substances.
(§2) These homogenates were prepared under low iron-chelating conditions using the procedures described in Rustin P. et al., Biochemical and molecular investigations in respiratory chain deficiencies, Clin. Chim. Acta., 228, 35-51 (1994). Briefly, homogenate from frozen human heart was obtained surgically and prepared at ice-melting temperature in a 0.1 M Tris-HCI buffer (pH 7.3) by five strokes of hand-driven ground glass potter using the procedures described in Sanchez-Casis et al., Pathology of the heart in Friedreich's ataxia: review of the literature and report of one case, Can. J. Neurol. Sci., 3, 349-354 (1977). After filtering through a 90 μm nylon net, homogenate was sampled and frozen at -80° C. for enzyme studies.
(§3) The endogenous antioxidant defenses of heart mitochondria were neutralized by simple dilution, and free access of iron to its specific targets was achieved by freeze-thaw disrupting mitochondrial membranes.
(§4) The activities of two enzymes specifically targeted in FRDA, namely membrane-bound respiratory chain complex II and soluble (mitochondrial plus cytosolic) aconitases, were monitored under either low or high iron chelating conditions, in the presence of either reduced or oxidized iron. Complex II activity was measured on freeze-thaw heart homogenate as the dichlorophenolindophenol quinone reductase (DCPIP) (14). Aconitase activity in heart homogenate, corresponding to the combined mitochondrial and cytosolic enzyme activities, was measured by following the aconitate accumulation at 240 nm in the presence of citrate (6). All measurements were performed using a DW2000 Aminco Spectrophotometer (SLM, USA) in a 37° C. thermostated quartz cell, magnetically stirred, and containing 2 ml 0.1 M Tris-HCI buffer (pH 7.3).
(§5) Lipids peroxidation, complex II activity, and aconitase activity were monitored according to the methods of example 1 above.

aconitases = experiment: Aconitase activity (aconitate accumulation at 240 nm in the presence of citrate) in human heart homogenate; type: biochemical
Procedure: as §1, §2, §3, §4, §5
Aconitase was assayed after additional 3 min incubation with 250 μM desferrixamine. Trace b: Aconitase activity measured after 6 min incubation in Tris-HCI buffer containing 250 μM desferrioxamine in the absence of Fe^2+.

[1] = 5 nM Fe^2+ + 50 μM quinone, no succinate
[2] = 5 nM Fe^2+ + 10 mM succinate + 50 μM quinone

COC1=C(OC)C(=O)C(CCCCCCCCCCO)=C(C)C1=O [idebenone, 6-(10-hydroxydecyl)-2,3-dimethoxy-5-methyl-1,4-benzoquinone]
Iron-induced damages to: Complex II (complex II; 5 nM Fe^2+ + 60 μM idebenone, no succinate): -80 ± 3%
Iron-induced damages to: Complex II (complex II; 5 nM Fe^2+ + 10 mM succinate + 60 μM idebenone): -5 ± 1%
Iron-induced damages to: Aconitases (aconitases; 5 nM Fe^2+ + 2 nM EDTA + 60 μM idebenone): -81 ± 3%
Iron-induced damages to: Aconitases (aconitases; 5 nM Fe^2+ + 2 nM EDTA + 10 mM succinate + 60 μM idebenone): -86 ± 3%
Iron-induced damages to: Aconitases (aconitases; 5 nM Fe^2+ + 60 μM idebenone): -2 ± 1%

CC(=O)N(O)CCCCCNC(=O)CCC(=O)N(O)CCCCCNC(=O)CCC(=O)N(O)CCCCCN [desferrioxamine]
Iron-induced damages to: Aconitases (aconitases; 5 nM Fe^2+ + 120 μM desferrioxamine): -92 ± 4%
Iron-induced damages to: Aconitases (aconitases; 120 μM desferrioxamine alone, no iron): 0 ± 0.5%

COC1=C(OC)C(=O)C(CC=C(C)CCC=C(C)CCC=C(C)CCC=C(C)CCC=C(C)CCC=C(C)CCC=C(C)CCC=C(C)CCC=C(C)CCC=C(C)C)=C(C)C1=O [CoQ10]
Iron-induced damages to: Complex II (complex II; [1]): -80 ± 2%
Iron-induced damages to: Complex II (complex II; [2]): -5 ± 1%
Iron-induced damages to: Aconitases (aconitases; 5 nM Fe^2+ + 50 μM quinone): -1 ± 1%
aconitase activity protected (aconitases; 3 min with 5 nM Fe^2+ + 8 μM CoQ10 + 10 mM succinate, then 3 min 250 μM desferrioxamine, FIG. 2D trace a): 67%

COC1=C(OC)C(=O)C(CC=C(C)CCC=C(C)CCC=C(C)CCC=C(C)C)=C(C)C1=O [CoQ4]
Iron-induced damages to: Complex II (complex II; [1]): -81 ± 3%
Iron-induced damages to: Complex II (complex II; [2]): -5 ± 2%
Iron-induced damages to: Aconitases (aconitases; 5 nM Fe^2+ + 50 μM quinone): 0%
